Experimental findings from publication PMC3576620, “Endocytosis of somatodendritic NCKX2 is regulated by Src family kinase-dependent tyrosine phosphorylation” (Frontiers in Cellular Neuroscience, 2013) are described below.

For the assay, the target named is T1, c-myc-tagged cytoplasmic loop of NCKX2, phosphomimetic mutant Y365E (rat) (UniProt O54701).
T1 sequence: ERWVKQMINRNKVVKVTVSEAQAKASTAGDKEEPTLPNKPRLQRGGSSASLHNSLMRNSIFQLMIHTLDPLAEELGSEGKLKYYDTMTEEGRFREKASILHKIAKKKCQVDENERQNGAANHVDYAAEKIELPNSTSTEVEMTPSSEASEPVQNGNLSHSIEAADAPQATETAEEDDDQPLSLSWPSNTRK
In words: co-IP; HEK293 cells co-transfected with HA-AP2M1 and myc-NCKX2-loop variants; lysate (50 mM Tris-Cl pH 7.4, 150 mM NaCl, 1 mM EDTA, 0.5% Triton X-100) incubated with anti-c-myc agarose overnight at 4°C; eluted with c-myc peptide; anti-HA blot, densitometry, n = 5.

Results are given in words; binding and its absence hold for the method and conditions named. Binding seen in cells or lysates may run through a third protein. Where a sequence is shown, tags or fusion partners need not be part of it.

B1: HA-tagged AP2M1 (μ subunit of adaptor protein complex 2) (natural protein, UniProt P84092 1-435, looked up)
chain: MIGGLFIYNHKGEVLISRVYRDDIGRNAVDAFRVNVIHARQQVRSPVTNIARTSFFHVKRSNIWLAAVTKQNVNAAMVFEFLYKMCDVMAAYFGKISEENIKNNFVLIYELLDEILDFGYPQNSETGALKTFITQQGIKSQHQTKEEQSQITSQVTGQIGWRREGIKYRRNELFLDVLESVNLLMSPQGQVLSAHVSGRVVMKSYLSGMPECKFGMNDKIVIEKQGKGTADETSKSGKQSIAIDDCTFHQCVRLSKFDSERSISFIPPDGEFELMRYRTTKDIILPFRVIPLVREVGRTKLEVKVVIKSNFKPSLLAQKIEVRIPTPLNTSGVQVICMKGKAKYKASENAIVWKIKRMAGMKESQISAEIELLPTNDKKKWARPPISMNFEVPFAPSGLKVRYLKVFEPKLNYSDHDVIKWVRYIGRSGIYETRC
notes: AP2M1, μ subunit of adaptor protein complex 2 (NM_053837.1; P84092), cloned into pcDNA3; gift from Dr. Ryan (Kim and Ryan, 2009); also called HA-AP2M1; μ subunit of AP-2; source: HEK293, transfected (calcium phosphate), in lysate
Consider B1, for which the binding result is “no binding”.
